{"source": "PubChem BioAssay AID1508588 | Peter MacCallum Cancer Centre – 2020", "purpose": "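Knock-downs boosting vemurafenib effects on melanoma cell growth or lactate release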 (primary screen)", "cell system": "human WM266.4 melanoma cells (BRAF V600 mutant)", "knock-down reagent": "siRNA pool against human genes, 40 nM", "duration": "96 h from transfection to read-out", "conditions": "vemurafenib 300 nM (about IC25), added 48 h after transfection, for 48 h; comparison arm got DMSO vehicle only", "measurement": "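Ratios to non-targeting siRNA for cell gain, counted as DAPI nuclei after minus before drug and averaged over two replicates, and for absorbance-read medium lactate per cell; both binned into fold-change classes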", "reading the numbers": "cell gain with vemurafenib: higher = more cell gain than with non-targeting siRNA; lactate per cell with vemurafenib: higher = more lactate made per cell", "hit rule": "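Enhancement is called by pairing each knock-down's vehicle-arm and drug-arm fold-change classes for viability or glycolysis; which class combinations qualify is not given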", "meaning of the calls": "active = enhances vemurafenib effect; inactive = no enhancement seen", "note": "The deposit covers about 18,000 reagents; this is a part drawn at random. 790 of them (4.4%) were called active. 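Calls rest on a combination of fold-change classes in drug and vehicle arms, not all shown here.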 A number with no mark means an inactive call."}
{"gene": "PRPF40B (pre-mRNA processing factor 40B)", "cell gain with vemurafenib": "0.52 (active)", "lactate per cell with vemurafenib": 0.48}
{"gene": "SYT8 (synaptotagmin 8)", "cell gain with vemurafenib": 0.36, "lactate per cell with vemurafenib": 0.71}
{"gene": "H2BC9 (H2B clustered histone 9)", "cell gain with vemurafenib": 0.38, "lactate per cell with vemurafenib": 1.66}
{"gene": "PEX5L (peroxisomal biogenesis factor 5 like)", "cell gain with vemurafenib": 0.42, "lactate per cell with vemurafenib": 0.76}
{"gene": "PGM2L1 (phosphoglucomutase 2 like 1)", "cell gain with vemurafenib": 0.3, "lactate per cell with vemurafenib": 0.92}
{"gene": "OR5D18 (olfactory receptor family 5 subfamily D member 18)", "cell gain with vemurafenib": 0.94, "lactate per cell with vemurafenib": 0.54}
{"gene": "FAHD2A (fumarylacetoacetate hydrolase domain containing 2A)", "cell gain with vemurafenib": 0.19, "lactate per cell with vemurafenib": 1.4}
{"gene": "SNRPA1 (small nuclear ribonucleoprotein polypeptide A')", "cell gain with vemurafenib": 0.24, "lactate per cell with vemurafenib": 2.31}
{"gene": "UPRT (uracil phosphoribosyltransferase homolog)", "cell gain with vemurafenib": 0.25, "lactate per cell with vemurafenib": 2.08}
{"gene": "KCNK16 (potassium two pore domain channel subfamily K member 16)", "cell gain with vemurafenib": 0.22, "lactate per cell with vemurafenib": 1.04}
{"gene": "TAT (tyrosine aminotransferase)", "cell gain with vemurafenib": 0.93, "lactate per cell with vemurafenib": 0.62}
{"gene": "MICA (MHC class I polypeptide-related sequence A)", "cell gain with vemurafenib": 0.68, "lactate per cell with vemurafenib": 0.56}
{"gene": "AP4M1 (adaptor related protein complex 4 subunit mu 1)", "cell gain with vemurafenib": 0.82, "lactate per cell with vemurafenib": 0.36}
{"gene": "VAPA (VAMP associated protein A)", "cell gain with vemurafenib": 0.67, "lactate per cell with vemurafenib": 0.68}
{"gene": "AGRP (agouti related neuropeptide)", "cell gain with vemurafenib": 0.34, "lactate per cell with vemurafenib": 0.78}
{"gene": "MSH4 (mutS homolog 4)", "cell gain with vemurafenib": 0.07, "lactate per cell with vemurafenib": 2.2}

2 entries from above, set out differently:
gene	cell gain with vemurafenib	lactate per cell with vemurafenib
PGM2L1 (phosphoglucomutase 2 like 1)	0.3	0.92
OR5D18 (olfactory receptor family 5 subfamily D member 18)	0.94	0.54
